This is an account of results in PMC8102920.

Chains of the proteins cited; added tags and fusions are not shown.
UniProt P55884: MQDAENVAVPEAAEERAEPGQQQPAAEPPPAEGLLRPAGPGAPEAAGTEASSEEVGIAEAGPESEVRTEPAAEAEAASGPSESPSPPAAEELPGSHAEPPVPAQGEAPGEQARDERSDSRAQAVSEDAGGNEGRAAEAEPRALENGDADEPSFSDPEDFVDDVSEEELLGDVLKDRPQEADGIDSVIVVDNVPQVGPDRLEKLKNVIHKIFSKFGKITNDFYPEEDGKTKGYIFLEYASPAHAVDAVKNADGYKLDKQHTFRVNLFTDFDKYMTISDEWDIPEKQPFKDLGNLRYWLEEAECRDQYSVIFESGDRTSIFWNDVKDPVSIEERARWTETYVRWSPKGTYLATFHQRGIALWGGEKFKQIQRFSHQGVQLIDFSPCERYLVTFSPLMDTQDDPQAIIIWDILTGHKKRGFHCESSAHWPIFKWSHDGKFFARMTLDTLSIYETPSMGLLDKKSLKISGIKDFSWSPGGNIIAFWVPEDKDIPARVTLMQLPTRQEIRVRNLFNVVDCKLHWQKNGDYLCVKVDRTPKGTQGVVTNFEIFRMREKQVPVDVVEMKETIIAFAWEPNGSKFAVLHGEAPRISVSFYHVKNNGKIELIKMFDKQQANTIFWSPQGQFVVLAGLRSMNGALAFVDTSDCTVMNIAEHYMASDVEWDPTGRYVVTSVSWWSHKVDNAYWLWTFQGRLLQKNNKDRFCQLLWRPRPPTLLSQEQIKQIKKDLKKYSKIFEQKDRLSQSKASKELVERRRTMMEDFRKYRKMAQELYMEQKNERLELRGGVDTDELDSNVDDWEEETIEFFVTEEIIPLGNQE
UniProt O15371: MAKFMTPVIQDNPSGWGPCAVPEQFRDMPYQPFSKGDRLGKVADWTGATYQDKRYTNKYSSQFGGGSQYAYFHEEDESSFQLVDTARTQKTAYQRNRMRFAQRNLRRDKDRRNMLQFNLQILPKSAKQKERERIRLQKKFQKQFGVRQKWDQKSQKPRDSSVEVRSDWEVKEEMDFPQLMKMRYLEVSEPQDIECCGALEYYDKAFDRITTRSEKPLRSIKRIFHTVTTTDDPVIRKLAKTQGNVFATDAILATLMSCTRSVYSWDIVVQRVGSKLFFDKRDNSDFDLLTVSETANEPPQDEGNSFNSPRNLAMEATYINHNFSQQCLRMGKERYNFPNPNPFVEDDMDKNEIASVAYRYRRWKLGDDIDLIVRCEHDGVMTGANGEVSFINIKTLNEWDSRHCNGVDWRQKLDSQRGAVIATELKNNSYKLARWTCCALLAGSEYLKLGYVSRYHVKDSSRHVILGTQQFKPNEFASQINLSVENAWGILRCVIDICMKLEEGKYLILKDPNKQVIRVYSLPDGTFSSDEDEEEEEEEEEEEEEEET
UniProt O00303: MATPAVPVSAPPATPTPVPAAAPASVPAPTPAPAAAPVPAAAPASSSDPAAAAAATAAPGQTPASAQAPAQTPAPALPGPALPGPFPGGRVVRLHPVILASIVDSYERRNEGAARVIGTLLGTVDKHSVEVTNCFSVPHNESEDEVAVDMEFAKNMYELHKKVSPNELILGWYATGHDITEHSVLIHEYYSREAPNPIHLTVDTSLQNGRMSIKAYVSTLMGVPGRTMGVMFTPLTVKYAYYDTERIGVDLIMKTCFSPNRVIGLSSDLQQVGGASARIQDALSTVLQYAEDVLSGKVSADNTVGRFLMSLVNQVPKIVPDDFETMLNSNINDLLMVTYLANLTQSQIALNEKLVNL
UniProt Q9UBQ5: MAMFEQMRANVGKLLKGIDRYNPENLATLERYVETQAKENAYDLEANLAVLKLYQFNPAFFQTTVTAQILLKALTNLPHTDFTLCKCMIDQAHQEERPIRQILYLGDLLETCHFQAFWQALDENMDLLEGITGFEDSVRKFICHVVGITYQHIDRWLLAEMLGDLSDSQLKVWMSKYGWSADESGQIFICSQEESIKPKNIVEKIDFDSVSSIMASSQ

Results are given in words; binding and its absence hold for the method and conditions named. Binding seen in cells or lysates may run through a third protein. Some results given as binding are weak or reduced against the parent protein; the word gives no strength.

This test concerns the target eukaryotic translation initiation factor 3 subunit b (human (endogenous in HEK293FT)) (UniProt P55884). As to the kind of experiment: co-IP; endogenous eIF3 complex precipitated from extracts of formaldehyde cross-linked (0.2%) HEK293FT cells with an antibody against eIF3b (Bethyl A301-761A) and protein A uMACS magnetic beads; Lysis Buffer 50 mM Tris-HCl pH 8, 150 mM NaCl, 1% Triton X-100; four washes; western blot with antibodies against the subunits; also repeated after siRNA depletion of eIF3c, d, e, g (Table S1). (In general: Immunoblotting shows a protein as a band on a membrane.)

Consider “eukaryotic translation initiation factor 3 subunit d (from UniProt O15371 1-548)”, for which the binding result is “binds”.
Turning to “eukaryotic translation initiation factor 3 subunit f (from UniProt O00303 1-357)”, the binding entry is recorded as “binds”.
Take “eukaryotic translation initiation factor 3 subunit k (from UniProt Q9UBQ5 1-218)”: the binding result is reported as “binds”.
